The values that follow come from the supplement of paper PMC10849652.

By UniProt entry, the sequences of proteins in these tests, tags left out. Where a name states a change or a piece, a line headed by the entry shows the natural chain unless it says otherwise.
UniProt Q8NB78: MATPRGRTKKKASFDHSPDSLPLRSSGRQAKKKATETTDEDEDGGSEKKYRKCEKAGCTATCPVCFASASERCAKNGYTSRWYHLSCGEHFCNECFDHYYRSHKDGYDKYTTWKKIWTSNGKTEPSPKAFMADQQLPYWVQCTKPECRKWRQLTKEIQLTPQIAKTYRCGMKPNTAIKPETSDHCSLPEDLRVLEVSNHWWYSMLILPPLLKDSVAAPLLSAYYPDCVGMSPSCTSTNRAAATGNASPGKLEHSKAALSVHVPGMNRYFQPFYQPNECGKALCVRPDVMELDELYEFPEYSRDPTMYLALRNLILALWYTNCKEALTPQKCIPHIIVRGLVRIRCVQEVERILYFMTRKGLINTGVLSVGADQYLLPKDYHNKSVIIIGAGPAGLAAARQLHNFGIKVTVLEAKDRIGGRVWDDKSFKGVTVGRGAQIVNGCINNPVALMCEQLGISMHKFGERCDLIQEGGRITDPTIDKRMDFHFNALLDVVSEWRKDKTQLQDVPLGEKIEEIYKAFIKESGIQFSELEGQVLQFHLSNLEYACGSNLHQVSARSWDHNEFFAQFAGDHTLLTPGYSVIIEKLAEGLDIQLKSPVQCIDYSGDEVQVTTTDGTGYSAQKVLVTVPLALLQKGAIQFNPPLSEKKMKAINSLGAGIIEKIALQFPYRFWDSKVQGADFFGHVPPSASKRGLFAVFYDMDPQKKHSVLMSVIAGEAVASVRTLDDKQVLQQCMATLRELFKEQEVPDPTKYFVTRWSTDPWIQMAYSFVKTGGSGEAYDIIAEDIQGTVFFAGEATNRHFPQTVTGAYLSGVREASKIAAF
UniProt P05412, whole entry, looked up: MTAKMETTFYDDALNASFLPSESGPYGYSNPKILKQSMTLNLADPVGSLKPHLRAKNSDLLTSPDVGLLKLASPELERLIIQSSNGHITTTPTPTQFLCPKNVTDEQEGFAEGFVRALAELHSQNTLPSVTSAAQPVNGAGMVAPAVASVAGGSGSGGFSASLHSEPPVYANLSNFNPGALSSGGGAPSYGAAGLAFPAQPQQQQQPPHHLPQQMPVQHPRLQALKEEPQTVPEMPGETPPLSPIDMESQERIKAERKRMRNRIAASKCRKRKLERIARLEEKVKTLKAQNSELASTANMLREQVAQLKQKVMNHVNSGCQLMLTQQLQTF
UniProt Q9BW62: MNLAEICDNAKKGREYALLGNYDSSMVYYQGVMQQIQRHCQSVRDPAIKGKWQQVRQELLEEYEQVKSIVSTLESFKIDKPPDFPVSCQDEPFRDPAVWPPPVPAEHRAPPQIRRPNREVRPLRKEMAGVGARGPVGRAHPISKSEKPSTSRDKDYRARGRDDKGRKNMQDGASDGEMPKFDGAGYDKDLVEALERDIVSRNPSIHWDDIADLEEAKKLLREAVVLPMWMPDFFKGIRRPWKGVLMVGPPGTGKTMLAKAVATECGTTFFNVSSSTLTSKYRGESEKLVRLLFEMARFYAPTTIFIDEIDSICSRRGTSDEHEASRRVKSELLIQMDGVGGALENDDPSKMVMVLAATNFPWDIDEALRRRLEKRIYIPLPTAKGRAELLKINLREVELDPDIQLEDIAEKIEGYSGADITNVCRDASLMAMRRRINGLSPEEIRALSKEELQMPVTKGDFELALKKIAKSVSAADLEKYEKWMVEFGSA
UniProt Q9BW19: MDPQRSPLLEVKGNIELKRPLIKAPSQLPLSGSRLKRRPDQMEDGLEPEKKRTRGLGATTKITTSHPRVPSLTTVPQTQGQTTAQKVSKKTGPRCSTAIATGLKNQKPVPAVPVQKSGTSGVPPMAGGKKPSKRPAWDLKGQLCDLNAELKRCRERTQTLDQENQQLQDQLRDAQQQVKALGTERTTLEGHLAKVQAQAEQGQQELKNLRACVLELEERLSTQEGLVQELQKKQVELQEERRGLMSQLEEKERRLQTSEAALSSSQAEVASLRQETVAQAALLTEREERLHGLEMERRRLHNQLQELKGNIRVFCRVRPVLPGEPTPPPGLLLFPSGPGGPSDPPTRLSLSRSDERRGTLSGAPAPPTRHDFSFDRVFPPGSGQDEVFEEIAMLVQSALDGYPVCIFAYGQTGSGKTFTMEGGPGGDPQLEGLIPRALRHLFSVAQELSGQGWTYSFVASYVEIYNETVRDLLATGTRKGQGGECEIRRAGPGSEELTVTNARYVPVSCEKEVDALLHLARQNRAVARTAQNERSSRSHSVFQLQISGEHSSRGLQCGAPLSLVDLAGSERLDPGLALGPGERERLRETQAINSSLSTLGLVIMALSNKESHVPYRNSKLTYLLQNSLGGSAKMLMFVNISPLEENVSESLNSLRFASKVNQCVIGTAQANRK
UniProt Q96L93: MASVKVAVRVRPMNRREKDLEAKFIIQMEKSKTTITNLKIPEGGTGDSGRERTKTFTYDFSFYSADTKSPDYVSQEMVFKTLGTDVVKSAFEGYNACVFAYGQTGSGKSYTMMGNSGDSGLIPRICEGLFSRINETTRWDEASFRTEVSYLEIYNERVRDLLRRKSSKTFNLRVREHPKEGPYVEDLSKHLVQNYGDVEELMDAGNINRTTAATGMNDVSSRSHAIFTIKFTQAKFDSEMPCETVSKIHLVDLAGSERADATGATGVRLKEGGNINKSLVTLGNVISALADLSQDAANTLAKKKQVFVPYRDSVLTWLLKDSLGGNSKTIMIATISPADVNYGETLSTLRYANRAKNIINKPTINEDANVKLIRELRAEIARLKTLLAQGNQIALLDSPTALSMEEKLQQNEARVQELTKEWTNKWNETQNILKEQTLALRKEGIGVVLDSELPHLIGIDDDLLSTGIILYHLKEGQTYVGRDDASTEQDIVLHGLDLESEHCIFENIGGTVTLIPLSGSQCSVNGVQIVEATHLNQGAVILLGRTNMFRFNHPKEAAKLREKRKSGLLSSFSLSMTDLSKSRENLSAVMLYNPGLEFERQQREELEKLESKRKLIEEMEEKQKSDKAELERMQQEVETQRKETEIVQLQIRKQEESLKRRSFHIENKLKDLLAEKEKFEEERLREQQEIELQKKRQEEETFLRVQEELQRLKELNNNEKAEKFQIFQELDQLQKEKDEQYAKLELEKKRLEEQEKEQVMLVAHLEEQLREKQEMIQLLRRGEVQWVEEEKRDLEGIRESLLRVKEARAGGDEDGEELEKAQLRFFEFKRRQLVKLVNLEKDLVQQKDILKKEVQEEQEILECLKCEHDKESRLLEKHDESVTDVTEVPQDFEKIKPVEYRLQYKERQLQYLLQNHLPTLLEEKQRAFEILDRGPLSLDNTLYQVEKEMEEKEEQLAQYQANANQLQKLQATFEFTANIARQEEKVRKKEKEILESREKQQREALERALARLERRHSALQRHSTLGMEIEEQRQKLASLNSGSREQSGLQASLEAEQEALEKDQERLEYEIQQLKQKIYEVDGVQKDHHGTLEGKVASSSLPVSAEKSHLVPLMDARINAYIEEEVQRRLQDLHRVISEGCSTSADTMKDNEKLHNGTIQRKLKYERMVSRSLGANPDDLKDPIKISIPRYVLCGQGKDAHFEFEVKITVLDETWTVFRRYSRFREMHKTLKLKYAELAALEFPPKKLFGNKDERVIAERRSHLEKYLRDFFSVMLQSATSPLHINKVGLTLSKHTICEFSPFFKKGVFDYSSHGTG
UniProt Q96S16: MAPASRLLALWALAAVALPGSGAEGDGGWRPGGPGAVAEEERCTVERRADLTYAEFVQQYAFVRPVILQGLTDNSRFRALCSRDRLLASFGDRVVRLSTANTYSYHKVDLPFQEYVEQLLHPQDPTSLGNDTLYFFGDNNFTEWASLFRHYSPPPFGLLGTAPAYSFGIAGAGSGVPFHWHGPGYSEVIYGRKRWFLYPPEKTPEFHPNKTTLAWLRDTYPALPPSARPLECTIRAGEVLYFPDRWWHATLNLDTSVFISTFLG
UniProt Q8IXQ5, whole entry, looked up: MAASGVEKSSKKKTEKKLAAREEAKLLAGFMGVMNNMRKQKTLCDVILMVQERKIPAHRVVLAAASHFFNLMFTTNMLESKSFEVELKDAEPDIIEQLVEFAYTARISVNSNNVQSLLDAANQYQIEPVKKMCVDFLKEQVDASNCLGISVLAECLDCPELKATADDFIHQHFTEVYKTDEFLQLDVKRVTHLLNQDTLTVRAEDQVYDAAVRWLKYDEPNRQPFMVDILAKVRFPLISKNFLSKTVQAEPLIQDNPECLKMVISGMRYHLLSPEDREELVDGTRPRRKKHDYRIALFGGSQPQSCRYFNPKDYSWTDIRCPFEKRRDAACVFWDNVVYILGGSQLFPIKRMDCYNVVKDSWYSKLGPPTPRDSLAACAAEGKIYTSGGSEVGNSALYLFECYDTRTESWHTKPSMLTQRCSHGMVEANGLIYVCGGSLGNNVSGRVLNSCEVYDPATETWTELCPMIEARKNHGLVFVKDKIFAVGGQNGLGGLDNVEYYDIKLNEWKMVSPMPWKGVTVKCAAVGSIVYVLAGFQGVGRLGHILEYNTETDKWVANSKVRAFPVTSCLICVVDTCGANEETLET
UniProt Q8NFY9: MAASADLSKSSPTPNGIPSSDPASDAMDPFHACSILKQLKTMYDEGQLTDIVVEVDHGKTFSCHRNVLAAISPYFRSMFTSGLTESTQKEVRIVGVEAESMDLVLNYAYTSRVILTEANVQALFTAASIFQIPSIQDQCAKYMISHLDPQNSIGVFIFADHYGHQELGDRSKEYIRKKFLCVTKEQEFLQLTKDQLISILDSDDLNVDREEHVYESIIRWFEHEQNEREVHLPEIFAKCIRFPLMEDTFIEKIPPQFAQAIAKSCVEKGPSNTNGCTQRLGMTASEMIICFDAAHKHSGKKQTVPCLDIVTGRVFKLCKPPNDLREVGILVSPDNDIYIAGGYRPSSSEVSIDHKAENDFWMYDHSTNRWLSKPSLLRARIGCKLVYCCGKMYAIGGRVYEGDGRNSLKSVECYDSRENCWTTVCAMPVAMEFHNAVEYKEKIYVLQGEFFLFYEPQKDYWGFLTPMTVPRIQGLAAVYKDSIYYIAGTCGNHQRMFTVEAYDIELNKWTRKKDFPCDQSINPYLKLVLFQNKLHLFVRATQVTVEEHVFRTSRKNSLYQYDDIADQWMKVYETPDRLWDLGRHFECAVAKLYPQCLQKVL
UniProt Q9H9V9: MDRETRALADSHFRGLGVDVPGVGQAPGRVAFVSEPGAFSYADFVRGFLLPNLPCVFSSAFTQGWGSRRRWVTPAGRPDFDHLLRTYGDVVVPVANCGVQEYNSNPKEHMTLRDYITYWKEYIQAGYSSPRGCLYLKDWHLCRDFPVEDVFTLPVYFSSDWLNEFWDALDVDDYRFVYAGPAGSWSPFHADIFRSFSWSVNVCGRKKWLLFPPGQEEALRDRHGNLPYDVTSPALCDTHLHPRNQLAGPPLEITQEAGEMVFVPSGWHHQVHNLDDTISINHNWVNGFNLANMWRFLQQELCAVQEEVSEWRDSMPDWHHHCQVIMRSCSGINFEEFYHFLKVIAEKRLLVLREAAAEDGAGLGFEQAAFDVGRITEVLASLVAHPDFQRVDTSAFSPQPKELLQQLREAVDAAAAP
UniProt Q2M2Z5: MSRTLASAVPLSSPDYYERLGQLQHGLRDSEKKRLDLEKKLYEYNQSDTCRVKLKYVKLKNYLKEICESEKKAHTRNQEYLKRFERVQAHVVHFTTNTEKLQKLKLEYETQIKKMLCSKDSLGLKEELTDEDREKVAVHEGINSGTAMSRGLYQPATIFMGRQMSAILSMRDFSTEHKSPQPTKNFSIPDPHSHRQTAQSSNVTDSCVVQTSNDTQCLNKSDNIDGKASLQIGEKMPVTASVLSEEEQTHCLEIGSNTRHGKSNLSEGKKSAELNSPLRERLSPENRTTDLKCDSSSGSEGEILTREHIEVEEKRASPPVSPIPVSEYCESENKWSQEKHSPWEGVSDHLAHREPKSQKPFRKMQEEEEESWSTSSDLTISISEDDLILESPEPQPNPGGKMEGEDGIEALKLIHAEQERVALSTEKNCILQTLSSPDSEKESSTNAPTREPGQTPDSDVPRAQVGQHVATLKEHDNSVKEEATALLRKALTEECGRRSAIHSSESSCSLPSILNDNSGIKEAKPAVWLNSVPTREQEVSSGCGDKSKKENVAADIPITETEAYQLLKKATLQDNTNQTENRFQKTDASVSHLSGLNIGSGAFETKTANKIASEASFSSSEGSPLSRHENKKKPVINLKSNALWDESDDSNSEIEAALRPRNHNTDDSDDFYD
UniProt A6NCN2: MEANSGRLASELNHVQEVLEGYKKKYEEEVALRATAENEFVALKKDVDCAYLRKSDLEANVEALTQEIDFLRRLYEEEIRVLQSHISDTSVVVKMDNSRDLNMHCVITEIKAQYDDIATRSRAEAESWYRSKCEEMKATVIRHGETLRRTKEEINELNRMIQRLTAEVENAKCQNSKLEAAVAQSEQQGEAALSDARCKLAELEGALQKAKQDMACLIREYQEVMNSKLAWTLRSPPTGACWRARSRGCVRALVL
UniProt P01591, whole entry, looked up: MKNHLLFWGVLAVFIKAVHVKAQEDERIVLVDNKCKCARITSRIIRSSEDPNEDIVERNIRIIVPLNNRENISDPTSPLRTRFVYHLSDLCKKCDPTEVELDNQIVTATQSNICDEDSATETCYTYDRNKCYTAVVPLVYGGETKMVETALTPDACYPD

This is one part of the list.

Compound in one assay: C1=CC(=CC=C1C2=NC3=C(N2)C=C(C=C3)C(=O)N)OC4=CC=C(C=C4)Cl
Briefly: log2 fold change, soluble protein after heating vs DMSO (PISA); higher = thermal stabilisation; K562 cells, 10 uM, 30 min; active = over 0.2 and 3.5 SD of the protein, either way, in both replicates (recomputed). The essentials: (§1)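 K562 cells at 2×10^6 cells/mL were treated with 10 μM compound for 30 min. Aliquots were heated for 3 min across 48°C-58°C, pooled, and extracted in PBS with 0.5% NP-40 at 4°C; soluble protein was the supernatant after 21,000xg for 90 min. Soluble protein was quantified by TMTpro 16plex LC-MS/MS with channel sums equalised, and reported as log2 fold change in thermal stability against DMSO controls, with values from duplicates.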
Take KIF21A (UniProt H0YI78): the log2 fold change is inactive: -0.137.
Same read-out and setting: in the case of KBTBD7 (UniProt Q8WVZ9) it was inactive: -0.004; in that of KMT2A isoform 3 (UniProt Q03164), inactive: 0.057; in that of KDM1B (UniProt Q8NB78), inactive: 0.072.
As to KDF1 (UniProt Q8NAX2), the log2 fold change is inactive: 0.079.
The same measure, in the same setting: as for KIF26A (UniProt Q9ULI4), the figure is inactive: -0.037.
Regarding JUN (UniProt P05412), the log2 fold change is inactive: 0.277.

Compound in another assay: C1=CC2=C(C=CC(=C2)/C=C\3/C(=O)NC(=NCC4=CC=CS4)S3)N=C1
The description is as above. The procedure, abridged: as §1
Consider KATNAL1 (UniProt Q9BW62), for which the log2 fold change was inactive: -0.064.
The same measure, in the same setting: as for KIFC1 (UniProt Q9BW19), the figure is inactive: 0.205.
On the same count and under the same terms, as for ITSN1 (UniProt Q15811), the figure is inactive: 0.145; as for KIF20A (UniProt O95235), inactive: 0.097.
On the same count and under the same terms, in the case of KIF16B isoform 2 (UniProt Q96L93) it was inactive: -0.053; in that of JMJD8 (UniProt Q96S16), inactive: 0.061; in that of KLHL7 isoform 3 (UniProt Q8IXQ5), inactive: -0.216.
Consider KBTBD8 (UniProt Q8NFY9), for which the log2 fold change is inactive: 0.1.
Same read-out and setting: in the case of KCTD21 (UniProt Q4G0X4) it was inactive: 0.069; in that of JMJD4 (UniProt Q9H9V9), inactive: 0.126.
Still for that read-out and setting: in the case of KDM6A (UniProt O15550) it was inactive: 0.065; in that of KIZ (UniProt Q2M2Z5), inactive: 0.077.
The same measure, in the same setting: as for KIF13A isoform 4 (UniProt Q9H1H9), the figure is inactive: 0.161.
KLC1 isoform 3 (UniProt Q07866): the log2 fold change is inactive: 0.009.

Compound in the next assay: C1=CC2=NC=CN=C2C=C1/C=C/3\C(=O)NC(=O)S3
The description is as above. The procedure, abridged:
as §1
Take KLF1 (UniProt Q13351): the log2 fold change is inactive: 0.092.
Same read-out and setting: as for KATNAL1 (UniProt Q9BW62), the figure is inactive: -0.124; as for KIDINS220 isoform 2 (UniProt Q9ULH0), inactive: -0.087.
As for KDM2B (UniProt Q8NHM5), the log2 fold change is inactive: 0.057.
Take KCTD7 (UniProt Q96MP8): the log2 fold change was inactive: -0.32.
With KRT87P (UniProt A6NCN2), the log2 fold change is inactive: 0.054.
On the same count and under the same terms, as for KIFAP3 (UniProt Q92845), the figure is inactive: -0.115; as for JCHAIN (UniProt P01591), inactive: -0.227.
Still for that read-out and setting: in the case of KIF1C (UniProt O43896) it was inactive: 0.076; in that of KLHL7 isoform 3 (UniProt Q8IXQ5), inactive: -0.084; in that of KBTBD8 (UniProt Q8NFY9), inactive: 0.096.
Still for that read-out and setting: as for KDM1B (UniProt Q8NB78), the figure is inactive: 0.
For JMJD4 (UniProt Q9H9V9), the log2 fold change was inactive: -0.065.
The same measure, in the same setting: in the case of KIF26A (UniProt Q9ULI4) it was inactive: 0.011; in that of KIAA0754 (UniProt O94854), inactive: -0.131.
On the same count and under the same terms, in the case of JUN (UniProt P05412) it was inactive: 0; in that of KLHL42 (UniProt Q9P2K6), inactive: -0.051.

Compound in another assay: C1=CC=C(C=C1)C2=NC(=C(N2)C3=CC=NC=C3)C4=CC(=C(C=C4)Cl)O
The assay is described as above. The essentials: as §1
For KLF1 (UniProt Q13351), the log2 fold change was inactive: 0.048.
Same read-out and setting: in the case of KIF21A (UniProt H0YI78) it was inactive: 0.1.
For the target KIFC1 (UniProt Q9BW19), the log2 fold change was inactive: -0.035.
The same measure, in the same setting: as for KMT2A isoform 3 (UniProt Q03164), the figure is inactive: 0.013.
As to KIF16B isoform 2 (UniProt Q96L93), the log2 fold change is inactive: 0.038.
Still for that read-out and setting: as for KATNBL1 (UniProt Q9H079), the figure is inactive: 0.015.
Still for that read-out and setting: as for JMJD8 (UniProt Q96S16), the figure is inactive: 0.066; as for KBTBD8 (UniProt Q8NFY9), inactive: -0.054; as for KDM6A (UniProt O15550), inactive: -0.038.
Still for that read-out and setting: in the case of KDF1 (UniProt Q8NAX2) it was inactive: -0.125.
Take KIF26A (UniProt Q9ULI4): the log2 fold change is inactive: 0.01.
The same measure, in the same setting: in the case of KIAA0754 (UniProt O94854) it was inactive: 0.002; in that of KIZ (UniProt Q2M2Z5), inactive: 0.103.
Regarding JUN (UniProt P05412), the log2 fold change is inactive: -0.254.
Same read-out and setting: in the case of KIF20B isoform 2 (UniProt Q96Q89) it was inactive: -0.177.

Compound in another assay: C1=CC=C2C(=C1)C3=NNC4=CC=CC(=C43)C2=O
The description is as above. The essentials: as §1
Take KATNAL1 (UniProt Q9BW62): the log2 fold change is inactive: -0.088.
Same read-out and setting: in the case of KIFC1 (UniProt Q9BW19) it was inactive: -0.051.
The same measure, in the same setting: as for ITSN1 (UniProt Q15811), the figure is inactive: -0.01; as for KIF20A (UniProt O95235), inactive: 0.162; as for KIF16B isoform 2 (UniProt Q96L93), inactive: -0.088.
Turning to JMJD8 (UniProt Q96S16), the log2 fold change was inactive: -0.002.
On the same count and under the same terms, in the case of KLHL7 isoform 3 (UniProt Q8IXQ5) it was inactive: 0.056; in that of KBTBD8 (UniProt Q8NFY9), inactive: 0.135; in that of KCTD21 (UniProt Q4G0X4), inactive: -0.138.
Turning to JMJD4 (UniProt Q9H9V9), the log2 fold change was inactive: 0.172.
On the same count and under the same terms, as for KDM6A (UniProt O15550), the figure is inactive: 0.079; as for KIZ (UniProt Q2M2Z5), inactive: -0.01; as for KIF13A isoform 4 (UniProt Q9H1H9), inactive: 0.021.
On to KLC1 isoform 3 (UniProt Q07866), for which the log2 fold change was inactive: -0.047.

Compound in another assay: C1CCN(C1)C(=O)NC2=CC=CC(=C2)NC3=NC=C(C(=N3)NCCC4=CN=CN4)Br
The assay is described as above. The procedure, abridged: as §1
For the target KATNAL1 (UniProt Q9BW62), the log2 fold change is inactive: 0.233.
The same measure, in the same setting: as for KIDINS220 isoform 2 (UniProt Q9ULH0), the figure is inactive: -0.008; as for KIF4A (UniProt O95239), inactive: -0.178; as for KATNBL1 (UniProt Q9H079), inactive: 0.191.
On the same count and under the same terms, as for KCTD1 (UniProt Q719H9), the figure is inactive: 0.044; as for KBTBD8 (UniProt Q8NFY9), inactive: 0.074.
On the same count and under the same terms, in the case of KDM1B (UniProt Q8NB78) it was inactive: -0.13; in that of KLC3 isoform 3 (UniProt Q6P597), inactive: -0.054.
Take KIAA0754 (UniProt O94854): the log2 fold change is inactive: 0.037.
Same read-out and setting: in the case of JUN (UniProt P05412) it was inactive: 0.069; in that of KLHDC10 (UniProt Q6PID8), inactive: -0.184; in that of KLHL42 (UniProt Q9P2K6), inactive: 0.017.
